No constants are given. Whether binding was seen depends on the method and setting. Some binding calls cover weakened binding; strength is not graded here.
Key:
Experiment in all cases: ITC
[1] = biological target: T1, Ectodomain of ER (E25-R580) (Arabidopsis thaliana) (UniProt Q42371)
T1 sequence: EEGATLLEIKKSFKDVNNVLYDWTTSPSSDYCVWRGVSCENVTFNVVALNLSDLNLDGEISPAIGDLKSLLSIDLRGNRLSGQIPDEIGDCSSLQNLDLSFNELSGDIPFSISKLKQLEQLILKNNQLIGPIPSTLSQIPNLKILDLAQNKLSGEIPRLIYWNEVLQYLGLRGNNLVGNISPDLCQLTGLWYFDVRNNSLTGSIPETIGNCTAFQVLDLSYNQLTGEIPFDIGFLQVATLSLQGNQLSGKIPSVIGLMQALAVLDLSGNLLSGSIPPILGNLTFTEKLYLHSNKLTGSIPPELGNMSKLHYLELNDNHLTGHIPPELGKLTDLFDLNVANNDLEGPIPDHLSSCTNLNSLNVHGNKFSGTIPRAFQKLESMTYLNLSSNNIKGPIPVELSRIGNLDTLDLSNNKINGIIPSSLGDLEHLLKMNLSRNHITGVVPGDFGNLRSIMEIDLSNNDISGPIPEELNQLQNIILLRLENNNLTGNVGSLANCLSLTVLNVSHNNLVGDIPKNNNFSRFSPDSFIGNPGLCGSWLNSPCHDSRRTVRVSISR

[2] = biological target: T2, Ectodomain of ERL2 (M28-R585) (Arabidopsis thaliana) (UniProt Q6XAT2)
T2 sequence: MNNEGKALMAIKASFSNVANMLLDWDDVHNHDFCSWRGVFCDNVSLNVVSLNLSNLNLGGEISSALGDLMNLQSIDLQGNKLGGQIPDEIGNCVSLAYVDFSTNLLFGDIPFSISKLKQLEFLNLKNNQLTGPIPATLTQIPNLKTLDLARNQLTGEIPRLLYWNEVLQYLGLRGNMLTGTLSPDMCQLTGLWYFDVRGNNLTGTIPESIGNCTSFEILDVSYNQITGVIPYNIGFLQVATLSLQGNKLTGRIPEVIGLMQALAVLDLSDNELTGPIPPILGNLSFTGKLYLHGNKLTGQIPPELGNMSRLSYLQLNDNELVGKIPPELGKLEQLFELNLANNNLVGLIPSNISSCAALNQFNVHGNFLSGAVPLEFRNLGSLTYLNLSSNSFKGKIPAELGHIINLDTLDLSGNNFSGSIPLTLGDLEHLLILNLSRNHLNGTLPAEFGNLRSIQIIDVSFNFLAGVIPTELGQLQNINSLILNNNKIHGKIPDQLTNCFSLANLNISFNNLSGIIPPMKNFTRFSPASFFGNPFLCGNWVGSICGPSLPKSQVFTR

[3] = biological target: T3, Ectodomain of ERL1 (M26-R582) (Arabidopsis thaliana) (UniProt C0LGW6)
T3 sequence: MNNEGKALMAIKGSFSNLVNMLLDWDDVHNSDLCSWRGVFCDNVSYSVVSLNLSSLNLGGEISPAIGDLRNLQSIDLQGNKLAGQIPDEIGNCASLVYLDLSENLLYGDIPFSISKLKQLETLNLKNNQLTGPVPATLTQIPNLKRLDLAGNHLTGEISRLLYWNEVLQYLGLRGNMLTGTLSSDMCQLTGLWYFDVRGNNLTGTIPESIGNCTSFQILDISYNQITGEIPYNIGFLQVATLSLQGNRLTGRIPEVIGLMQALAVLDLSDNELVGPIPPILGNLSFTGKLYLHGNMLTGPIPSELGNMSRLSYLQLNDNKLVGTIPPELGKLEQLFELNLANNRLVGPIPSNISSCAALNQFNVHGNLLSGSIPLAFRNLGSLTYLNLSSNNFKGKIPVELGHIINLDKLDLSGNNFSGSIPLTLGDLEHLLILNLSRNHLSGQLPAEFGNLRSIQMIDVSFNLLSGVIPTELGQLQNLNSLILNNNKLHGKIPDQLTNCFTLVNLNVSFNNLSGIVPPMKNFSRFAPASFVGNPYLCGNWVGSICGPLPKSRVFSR

Measured: binding

B1: Mature EPFL2 (MEPFL2) (peptide, UniProt Q9T068 53-128)
chain: GHIGSRPPRCERVRCRSCGHCEAIQVPTNPQTKLHSPLTTSSSSSSETIHLDYTRGDDSTNYKPMSWKCKCGNSIYNP
binds: all assays above

Source: publication doi:10.1101/736439
